Experimental data: PubChem BioAssay AID1347075 (National Center for Advancing Translational Sciences (NCATS), 2019)
“And” between values parts separate entries of the source, which are not always exact repeats. Equal values may be shown once. The campaign covered roughly 400,000 compounds. About 5,500 (1.4%) were called active. Inconclusive means that the source gave no clear call. Such entries were picked first, then a sample of the others. The call rests on the fitted dose curve; in most records, active means well fitted cell-killing curve with a large enough effect; inconclusive means small, poorly fitted or top-dose-only effect, or effect the other way; inactive means flat fitted curve, though single readings scatter. Potencies beside an inconclusive call are fits to weak or partial responses and may not hold up.
On the % scale 0 is the no-effect control and ±100 the full control effect; potency means the concentration at half of the fitted maximal effect.

Assay: qHTS assay for MDR1-selective chemotherapeutics: Primary screen using the parental adenocarcinoma cell KB-3-1; further: nearly all actives have a fitted effect of over 60% in size
Conditions: KB-3-1 viability, CellTiter-Glo ATP luminescence, 72 h; activity change, negative = cytotoxic: at 46.1 µM (top of the series)
Outline: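 Cells are dispensed, compounds pinned in, plates held at 37 °C for 72 h, then CellTiter-Glo is added and luminescence read after 10 minutes. Cell line: parental KB-3-1 in phenol-red-free DMEM, 10% FBS.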
For `C=C1CCc2c([nH]c3ccc(OCC(C)C)cc23)C1=O`, the Potency was inconclusive: 23.1 µM [cytotoxic, single point].
For `Cn1c(SCc2c(F)cccc2Cl)nnc1-c1cccs1`, the Potency was inconclusive: 23.1 µM [cytotoxic, single point].
For `COc1cc(OC)cc(C(=O)Nc2ccc(Cn3ccnc3)cc2)c1`, the Potency was inconclusive: 29.1 µM [cytotoxic, single point].
For `COc1ccc(C2=Nn3c([n+](C)c4ccccc43)SC2)cc1`, the Potency was active: 2.59 µM.
With `CCOc1cc2c(cc1OCC)C(c1ccc(O)c(OC)c1)NCC2` (stereo not drawn) the Potency was inconclusive: 14.6 µM [rising, partial curve, poor fit].
For `C[C@@H]1CCCCO[C@@H](CN(C)CC2CCCCC2)[C@@H](C)CN([C@H](C)CO)C(=O)c2cc(NS(=O)(=O)c3ccc(Cl)cc3)ccc2O1`, the Potency was inconclusive: 29.1 µM [cytotoxic, single point].
In the case of `Cc1cc2c(cc1S(=O)(=O)N1CCN(c3ccccc3)CC1)OCCN2C`, the Potency is reported as “inactive”.
With `O=C(NNC(=S)NC1CCCCC1)c1ccc(Cl)s1` the Potency was inconclusive: 18.4 µM [cytotoxic, single point].
With `Cc1ccc(-c2nnc(-c3ccccc3Br)o2)cc1` the Potency was inconclusive: 29.1 µM [rising, single point].
In the case of `CC1(C)CC=CC(COC(=O)c2ccccc2C(=O)O)C1` (stereo not drawn), the Potency is reported as “inactive”.
With `CCc1nc(N2CCCC(C)C2)c2oc3ccccc3c2n1` (stereo not drawn) the Potency was inconclusive: 16.4 µM [cytotoxic, single point].
With `O=C1CCC(c2ccc3c(c2)CCC3)=NN1` the Potency was active: 1.16 µM.
In the case of `c1ccc2c(CSCc3nc4ccccc4[nH]3)cccc2c1`, the Potency is reported as inconclusive: 11.6 µM [cytotoxic, partial curve].
With `CC(C)(C)OC(=O)N1CCC(c2c(C(=O)Nc3ccc4c(c3)OCO4)cnn2-c2ccccc2)CC1` the Potency was inconclusive: 29.1 µM [cytotoxic, single point].
In the case of `Cc1ccc(S(=O)(=O)CCc2nnc(NC(=O)CCl)s2)cc1C`, the Potency is reported as inconclusive: 29.1 µM [cytotoxic, single point].
For `CCCCC(=O)NNC(=S)NC(=O)c1ccc(C)cc1`, the Potency was inconclusive: 8.2 µM [cytotoxic, partial curve].
In the case of `COc1ccc(CNC(=O)c2cnc3ccc(C)cn3c2=O)cc1`, the Potency is reported as “inactive”.
In the case of `CCOC(=O)N1CCN(C(=O)c2ccc3c(c2)N(Cc2ccc(C)cc2)CCS3)CC1`, the Potency is reported as inconclusive: 18.4 µM [cytotoxic, single point].
In the case of `N#C/C(=C\c1ccc([N+](=O)[O-])o1)c1nc2ccccc2[nH]1`, the Potency is reported as active: 13 µM.
With `COc1ccc(NC(=O)c2cnc(SC)nc2)cc1` the Potency was active: 16.4 µM.
With `CN(C)c1oc(-c2ccccc2Cl)nc1P(=O)(c1ccccc1)c1ccccc1` the Potency was inconclusive: 23.1 µM [cytotoxic, single point].
With `Nc1ncc([N+](=O)[O-])c(N2CCCCCC2)n1` the Potency was inconclusive: 29.1 µM [rising, single point].
For `C[C@@H]1CN([C@@H](C)CO)S(=O)(=O)c2ccc(Br)cc2O[C@H]1CN(C)Cc1ccccc1F`, the Potency was inconclusive: 29.1 µM [cytotoxic, single point].
With `O=C(CSc1nnc(-c2ccncc2)o1)NCc1ccc(Cl)cc1` the Potency was inconclusive: 10.3 µM [rising, partial curve, poor fit].
In the case of `c1cc2cc(-c3c(-c4ccc5c(c4)OCO5)noc3-c3ccsc3)ccc2[nH]1`, the Potency is reported as inconclusive: 16.4 µM [cytotoxic, single point].
With `CCNc1nc(N)nc(-c2cc(Cl)ccc2O)n1` the Potency was inconclusive: 32.6 µM [cytotoxic, partial curve, poor fit].
For `COc1cc(C(=O)Nc2ccc(C(=O)c3ccncc3)cc2)cc(OC)c1OC`, the Potency was “inactive”.
With `CCCc1[nH]nc2c1C(c1ccc(Br)s1)C(C#N)=C(N)O2` (stereo not drawn) the Potency was inconclusive: 29.1 µM [cytotoxic, single point].
In the case of `COc1ccc2nc(N/C(N)=N/S(C)(=O)=O)nc(C)c2c1`, the Potency is reported as active: 8.2 µM.
In the case of `CC(C)(C)c1nc(CN2CCCCC2)cc(CN2CCCCC2)c1O`, the Potency is reported as inconclusive: 16.4 µM [cytotoxic, single point].
In the case of `O=C(/C=C/c1cc(Br)ccc1O)c1ccco1`, the Potency is reported as inconclusive: 29.1 µM [cytotoxic, single point].
For `CSc1ccc(C(=O)C2CCCN(Cc3cccn3-c3cccnc3)C2)cc1` (stereo not drawn), the Potency was inconclusive: 20.6 µM [cytotoxic, single point].
For `Cc1ccc(Cl)cc1N(C)C(=O)C1CCCN(c2ncnc3onc(-c4ccc(F)cc4)c23)C1` (stereo not drawn), the Potency was inconclusive: 20.6 µM [cytotoxic, partial curve].
In the case of `CCn1c2ccccc2c2nc3ccccc3nc21`, the Potency is reported as “inactive”.
In the case of `COC(=O)c1cc(COc2ccc3oc(C)c(C(=O)OC(C)C)c3c2)c(C)o1`, the Potency is reported as inconclusive: 20.6 µM [cytotoxic, single point].
For `CCNc1nc(NCC)nc(SCCOC(=O)Nc2ccccc2)n1`, the Potency was “inactive”.
With `O=C(Cc1ccc(Cl)cc1)NCC(=O)N1CCN(Cc2ccccc2)CC1` the Potency was inconclusive: 29.1 µM [cytotoxic, single point].
For `CN(C)c1ccc(N2C(=NC(=O)CCC3CCCC3)SC3CS(=O)(=O)CC32)cc1` (stereo not drawn), the Potency was inconclusive: 20.6 µM [rising, partial curve, poor fit].
In the case of `Fc1ccc2c(c1)C1OCCCC1C(c1ccccc1)N2` (stereo not drawn), the Potency is reported as “inactive”.
For `N/C(=N\c1nc2c(c(=O)[nH]1)CCC2)Nc1cccc2ccccc12`, the Potency was active: 23.1 µM.
In the case of `Nc1c2c(nc3sc4c(c13)CCCCC4)CCCCC2`, the Potency is reported as inconclusive: 16.4 µM [cytotoxic, partial curve].
In the case of `CCC1CCCCN1C(=S)NC(=O)c1cc(Br)ccc1Cl` (stereo not drawn), the Potency is reported as inconclusive: 29.1 µM [cytotoxic, single point].
For `O=C(Cn1nc(-c2ccc(Cl)cc2)ccc1=O)NCCc1ccccc1`, the Potency was “inactive”.
In the case of `COc1c(C(=O)Nc2ccc(CN3CCOCC3)cc2)cc2ccccc2c1Br`, the Potency is reported as “inactive”.
With `COc1ccc(NC(=O)CN(C)C(=O)c2cn(-c3ccccc3)nc2-c2ccc(F)cc2)cc1` the Potency was inconclusive: 29.1 µM [cytotoxic, single point].
With `O=C(NCc1cccnc1)c1csc([C@@H]2C[C@H](O)[C@@H](CO)O2)n1` the activity change, negative = cytotoxic was inconclusive: 0.0011%.
For `Cc1c(Cl)cccc1NC(=O)N1CCCN(c2nc(-c3ccccc3)ns2)CC1`, the Potency was inconclusive: 18.4 µM [cytotoxic, single point].
In the case of `COc1ccc(N(C(=O)/C=C/C(=O)Nc2cc(C)on2)C(C(=O)NC2CCCC2)c2ccccc2C)cc1` (stereo not drawn), the Potency is reported as inconclusive: 29.1 µM [cytotoxic, single point].
With `CCOC(=O)c1c(-c2ccccc2)nnn1-c1nc(OCC)nc(N2CCCCC2)n1` the Potency was inconclusive: 23.1 µM [cytotoxic, partial curve].
In the case of `CCCCCn1c(=O)[nH]c2cc(C(=O)NCCCN(CC)CC)ccc2c1=O`, the Potency is reported as inconclusive: 29.1 µM [cytotoxic, single point].
For `CC(C)OP(=O)(OC(C)C)C1(NS(=O)(=O)c2ccc(Cl)cc2)C=C(Cl)C(=O)C(Cl)=C1`, the Potency was “inactive”.
With `COc1ccc(C(=O)C[n+]2cc(-c3ccc(OC)cc3)n3c2CCCC3)cc1` the Potency was inconclusive: 16.4 µM [cytotoxic, partial curve, poor fit] and inconclusive: 18.4 µM [cytotoxic, single point].
In the case of `Cc1cc(NS(=O)(=O)c2ccc(NC(=O)c3ccc([N+](=O)[O-])s3)cc2)nc(C)n1`, the Potency is reported as inconclusive: 16.4 µM [cytotoxic, single point].
For `O=C(NNC(=O)c1ccccc1O)c1ccc(S(=O)(=O)Nc2ccccc2F)cc1`, the Potency was inconclusive: 25.9 µM [cytotoxic, partial curve, poor fit].
With `COCC(=O)Nc1ccc(N2CCOCC2)c(S(=O)(=O)Nc2ccccc2OC)c1` the Potency was inconclusive: 29.1 µM [cytotoxic, single point].
In the case of `CCC[C@@H]1C[C@@]1(CCC)[C@@H](NP(=O)(c1ccccc1)c1ccccc1)c1ccc(C(=O)OC)cc1`, the Potency is reported as inconclusive: 29.1 µM [cytotoxic, single point].
For `CCCCOc1ccc(C(=O)NCC(=O)NCC(=O)OCC)cc1`, the Potency was inconclusive: 29.1 µM [cytotoxic, single point].
For `CC(C)c1ccc(-c2noc(C3CCCN(C(=O)c4ccc(F)cc4F)C3)n2)cc1` (stereo not drawn), the Potency was inconclusive: 14.6 µM [cytotoxic, partial curve, poor fit].
In the case of `CCNc1nc(NCC)nc(N(C#N)CCOc2ccccc2)n1`, the Potency is reported as “inactive”.
With `COc1cc(/C=C/C(=O)c2ccc(C)cc2)ccc1OCC#N` the Potency was inconclusive: 29.1 µM [cytotoxic, single point].
For `Cn1cc(S(=O)(=O)N2CCc3ccccc32)cc1C(=O)NC(C)(C)C`, the Potency was inconclusive: 8.2 µM [cytotoxic, partial curve, poor fit].
With `CN(Cc1ccccc1)C(=O)c1nc[nH]c1C(=O)N1CCN(c2ccccc2)CC1` the Potency was “inactive”.
With `CCc1ccc(CN2CCN(S(=O)(=O)Cc3ccccc3)CC2)cc1` the Potency was “inactive”.
In the case of `N#Cc1c(NC(=O)CSc2nc(-c3ccccc3)cc(C(F)(F)F)n2)sc2c1CCC2`, the Potency is reported as “inactive”.
In the case of `CCc1c(-c2ccccc2OC)ncn1Cc1cccc(-c2ccccc2)c1`, the Potency is reported as active: 13 µM.
In the case of `COC(=O)c1cc(NC(=O)c2ccco2)ccc1N1CCOCC1`, the Potency is reported as inconclusive: 0.0065 µM [cytotoxic, full curve].
In the case of `CC(NC(=O)COC(=O)C1CC2CCCC(C1)C2=O)c1ccccc1` (stereo not drawn), the Potency is reported as “inactive”.
With `C[C@@H]1CN([C@H](C)CO)C(=O)CCCn2nncc2CO[C@H]1CN(C)S(C)(=O)=O` the Potency was “inactive”.
